{"sequences": {"note": "Amino acid sequences for entries named in this document (tags omitted). A change or cut given only in a name is not applied to a line headed by its entry. Residues count along the entry.", "UniProt O75592": "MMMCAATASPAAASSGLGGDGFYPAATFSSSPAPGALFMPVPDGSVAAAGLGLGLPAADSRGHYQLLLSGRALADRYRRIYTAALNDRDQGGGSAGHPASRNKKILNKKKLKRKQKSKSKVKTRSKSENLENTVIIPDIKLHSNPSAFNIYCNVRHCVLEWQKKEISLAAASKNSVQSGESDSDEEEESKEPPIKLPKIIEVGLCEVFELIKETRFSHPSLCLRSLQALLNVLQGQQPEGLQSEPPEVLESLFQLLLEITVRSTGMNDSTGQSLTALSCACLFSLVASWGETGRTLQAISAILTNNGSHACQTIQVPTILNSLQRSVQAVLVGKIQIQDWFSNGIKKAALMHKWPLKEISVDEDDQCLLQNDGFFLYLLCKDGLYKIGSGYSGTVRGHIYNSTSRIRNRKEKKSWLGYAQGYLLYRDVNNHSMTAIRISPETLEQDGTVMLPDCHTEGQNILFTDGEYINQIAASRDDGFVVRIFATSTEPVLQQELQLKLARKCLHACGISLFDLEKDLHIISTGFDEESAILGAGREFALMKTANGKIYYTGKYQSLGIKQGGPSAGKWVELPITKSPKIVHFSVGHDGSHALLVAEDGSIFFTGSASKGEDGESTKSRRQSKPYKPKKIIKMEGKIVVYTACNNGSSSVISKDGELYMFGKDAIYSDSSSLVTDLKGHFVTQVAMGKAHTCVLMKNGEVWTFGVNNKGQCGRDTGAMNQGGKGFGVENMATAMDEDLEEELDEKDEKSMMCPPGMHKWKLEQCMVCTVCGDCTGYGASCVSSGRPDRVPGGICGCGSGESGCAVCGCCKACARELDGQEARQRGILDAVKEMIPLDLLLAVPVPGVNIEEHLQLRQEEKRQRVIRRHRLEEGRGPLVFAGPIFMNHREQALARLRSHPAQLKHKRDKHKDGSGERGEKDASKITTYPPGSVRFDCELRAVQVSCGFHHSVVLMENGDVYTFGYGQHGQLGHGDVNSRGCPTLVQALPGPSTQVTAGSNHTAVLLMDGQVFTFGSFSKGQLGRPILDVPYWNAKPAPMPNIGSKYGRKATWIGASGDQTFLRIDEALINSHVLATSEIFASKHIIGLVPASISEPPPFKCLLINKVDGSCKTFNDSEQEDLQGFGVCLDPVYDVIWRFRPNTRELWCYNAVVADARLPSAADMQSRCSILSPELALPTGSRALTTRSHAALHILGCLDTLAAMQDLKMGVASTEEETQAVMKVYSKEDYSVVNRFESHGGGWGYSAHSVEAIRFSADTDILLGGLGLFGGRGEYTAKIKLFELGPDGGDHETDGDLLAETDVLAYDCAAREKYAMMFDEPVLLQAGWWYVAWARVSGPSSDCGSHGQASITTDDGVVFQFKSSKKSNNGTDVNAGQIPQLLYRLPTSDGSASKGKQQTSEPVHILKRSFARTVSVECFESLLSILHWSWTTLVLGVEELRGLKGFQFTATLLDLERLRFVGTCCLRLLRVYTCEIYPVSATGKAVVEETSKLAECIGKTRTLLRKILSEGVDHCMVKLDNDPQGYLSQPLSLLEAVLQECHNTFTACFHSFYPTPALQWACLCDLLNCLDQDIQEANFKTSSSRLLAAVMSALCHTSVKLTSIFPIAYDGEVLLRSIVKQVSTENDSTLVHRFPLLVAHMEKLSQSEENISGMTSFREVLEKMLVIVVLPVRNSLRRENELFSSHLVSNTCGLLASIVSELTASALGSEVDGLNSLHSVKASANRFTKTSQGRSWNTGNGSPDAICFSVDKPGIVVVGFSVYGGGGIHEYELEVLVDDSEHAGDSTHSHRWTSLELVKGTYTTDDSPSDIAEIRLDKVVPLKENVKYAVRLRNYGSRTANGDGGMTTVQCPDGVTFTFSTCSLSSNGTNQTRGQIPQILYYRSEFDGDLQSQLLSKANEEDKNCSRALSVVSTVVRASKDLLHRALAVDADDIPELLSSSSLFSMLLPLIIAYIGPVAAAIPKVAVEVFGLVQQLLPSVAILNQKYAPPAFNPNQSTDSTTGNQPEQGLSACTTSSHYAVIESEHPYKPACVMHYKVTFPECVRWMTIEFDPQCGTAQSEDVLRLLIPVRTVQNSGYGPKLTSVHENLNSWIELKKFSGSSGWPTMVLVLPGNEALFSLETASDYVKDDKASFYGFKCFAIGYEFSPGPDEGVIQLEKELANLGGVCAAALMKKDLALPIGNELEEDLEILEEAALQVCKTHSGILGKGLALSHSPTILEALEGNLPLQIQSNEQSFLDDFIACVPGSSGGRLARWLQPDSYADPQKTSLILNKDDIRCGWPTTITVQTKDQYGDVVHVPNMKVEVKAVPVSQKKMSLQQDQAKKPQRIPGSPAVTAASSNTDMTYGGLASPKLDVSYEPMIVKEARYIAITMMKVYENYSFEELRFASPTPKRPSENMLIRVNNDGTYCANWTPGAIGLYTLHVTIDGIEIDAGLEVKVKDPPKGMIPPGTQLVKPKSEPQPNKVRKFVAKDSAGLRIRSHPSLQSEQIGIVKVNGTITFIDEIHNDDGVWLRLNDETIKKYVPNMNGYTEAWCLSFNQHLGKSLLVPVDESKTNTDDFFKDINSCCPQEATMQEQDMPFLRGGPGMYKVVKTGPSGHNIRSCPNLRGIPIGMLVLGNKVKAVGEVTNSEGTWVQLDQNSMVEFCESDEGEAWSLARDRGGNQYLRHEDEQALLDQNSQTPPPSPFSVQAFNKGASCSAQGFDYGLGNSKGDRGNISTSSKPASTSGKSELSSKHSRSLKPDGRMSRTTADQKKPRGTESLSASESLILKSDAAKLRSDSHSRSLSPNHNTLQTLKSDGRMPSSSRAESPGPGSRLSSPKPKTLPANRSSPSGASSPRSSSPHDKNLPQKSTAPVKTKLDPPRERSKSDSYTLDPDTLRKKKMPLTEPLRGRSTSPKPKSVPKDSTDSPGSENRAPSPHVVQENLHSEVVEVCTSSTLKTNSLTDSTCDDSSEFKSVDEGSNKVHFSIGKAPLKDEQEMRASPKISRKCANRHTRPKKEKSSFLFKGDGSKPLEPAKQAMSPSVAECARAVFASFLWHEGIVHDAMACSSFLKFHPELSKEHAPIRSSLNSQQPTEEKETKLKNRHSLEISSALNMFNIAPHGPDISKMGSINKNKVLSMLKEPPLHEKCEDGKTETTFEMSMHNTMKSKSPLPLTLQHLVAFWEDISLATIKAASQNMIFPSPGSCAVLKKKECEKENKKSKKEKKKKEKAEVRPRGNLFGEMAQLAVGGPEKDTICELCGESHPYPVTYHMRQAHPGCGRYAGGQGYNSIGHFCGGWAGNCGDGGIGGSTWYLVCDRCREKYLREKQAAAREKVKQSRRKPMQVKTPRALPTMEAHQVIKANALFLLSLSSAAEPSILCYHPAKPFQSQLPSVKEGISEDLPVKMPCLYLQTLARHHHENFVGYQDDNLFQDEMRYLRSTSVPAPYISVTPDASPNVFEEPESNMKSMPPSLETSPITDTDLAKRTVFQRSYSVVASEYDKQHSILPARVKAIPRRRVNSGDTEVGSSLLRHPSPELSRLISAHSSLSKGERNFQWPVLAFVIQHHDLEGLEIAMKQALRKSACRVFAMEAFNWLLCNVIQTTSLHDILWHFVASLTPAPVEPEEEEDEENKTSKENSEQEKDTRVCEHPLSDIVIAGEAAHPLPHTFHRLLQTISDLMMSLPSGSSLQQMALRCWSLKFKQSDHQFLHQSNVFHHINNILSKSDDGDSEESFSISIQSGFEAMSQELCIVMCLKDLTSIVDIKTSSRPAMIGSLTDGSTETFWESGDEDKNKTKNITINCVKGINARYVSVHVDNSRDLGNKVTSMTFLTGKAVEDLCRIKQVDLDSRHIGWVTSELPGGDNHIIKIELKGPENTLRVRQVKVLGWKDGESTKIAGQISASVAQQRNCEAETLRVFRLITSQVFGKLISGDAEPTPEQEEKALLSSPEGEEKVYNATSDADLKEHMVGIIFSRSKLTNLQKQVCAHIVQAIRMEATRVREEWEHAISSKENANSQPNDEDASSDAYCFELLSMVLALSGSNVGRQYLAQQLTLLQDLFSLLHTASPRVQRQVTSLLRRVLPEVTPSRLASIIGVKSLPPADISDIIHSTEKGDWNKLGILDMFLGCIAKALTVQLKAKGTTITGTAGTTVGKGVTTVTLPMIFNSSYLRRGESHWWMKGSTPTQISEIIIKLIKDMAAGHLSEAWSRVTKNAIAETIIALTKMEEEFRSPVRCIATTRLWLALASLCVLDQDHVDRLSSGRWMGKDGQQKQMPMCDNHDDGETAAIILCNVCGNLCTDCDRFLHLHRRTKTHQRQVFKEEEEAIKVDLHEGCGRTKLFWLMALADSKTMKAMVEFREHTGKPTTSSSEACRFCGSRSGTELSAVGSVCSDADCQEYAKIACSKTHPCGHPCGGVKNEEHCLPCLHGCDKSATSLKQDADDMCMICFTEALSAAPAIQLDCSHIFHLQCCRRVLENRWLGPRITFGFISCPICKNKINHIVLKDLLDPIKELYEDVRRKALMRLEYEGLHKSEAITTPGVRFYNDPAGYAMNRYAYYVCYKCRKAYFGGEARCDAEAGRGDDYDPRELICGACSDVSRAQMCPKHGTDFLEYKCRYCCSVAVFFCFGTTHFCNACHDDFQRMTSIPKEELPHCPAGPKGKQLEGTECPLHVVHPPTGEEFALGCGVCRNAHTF", "UniProt P61599, whole entry, looked up": "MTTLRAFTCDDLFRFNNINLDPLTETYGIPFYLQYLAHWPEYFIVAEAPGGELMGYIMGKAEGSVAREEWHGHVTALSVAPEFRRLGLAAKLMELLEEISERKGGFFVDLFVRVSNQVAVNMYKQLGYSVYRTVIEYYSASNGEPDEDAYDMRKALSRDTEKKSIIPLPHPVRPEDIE", "UniProt Q99707": "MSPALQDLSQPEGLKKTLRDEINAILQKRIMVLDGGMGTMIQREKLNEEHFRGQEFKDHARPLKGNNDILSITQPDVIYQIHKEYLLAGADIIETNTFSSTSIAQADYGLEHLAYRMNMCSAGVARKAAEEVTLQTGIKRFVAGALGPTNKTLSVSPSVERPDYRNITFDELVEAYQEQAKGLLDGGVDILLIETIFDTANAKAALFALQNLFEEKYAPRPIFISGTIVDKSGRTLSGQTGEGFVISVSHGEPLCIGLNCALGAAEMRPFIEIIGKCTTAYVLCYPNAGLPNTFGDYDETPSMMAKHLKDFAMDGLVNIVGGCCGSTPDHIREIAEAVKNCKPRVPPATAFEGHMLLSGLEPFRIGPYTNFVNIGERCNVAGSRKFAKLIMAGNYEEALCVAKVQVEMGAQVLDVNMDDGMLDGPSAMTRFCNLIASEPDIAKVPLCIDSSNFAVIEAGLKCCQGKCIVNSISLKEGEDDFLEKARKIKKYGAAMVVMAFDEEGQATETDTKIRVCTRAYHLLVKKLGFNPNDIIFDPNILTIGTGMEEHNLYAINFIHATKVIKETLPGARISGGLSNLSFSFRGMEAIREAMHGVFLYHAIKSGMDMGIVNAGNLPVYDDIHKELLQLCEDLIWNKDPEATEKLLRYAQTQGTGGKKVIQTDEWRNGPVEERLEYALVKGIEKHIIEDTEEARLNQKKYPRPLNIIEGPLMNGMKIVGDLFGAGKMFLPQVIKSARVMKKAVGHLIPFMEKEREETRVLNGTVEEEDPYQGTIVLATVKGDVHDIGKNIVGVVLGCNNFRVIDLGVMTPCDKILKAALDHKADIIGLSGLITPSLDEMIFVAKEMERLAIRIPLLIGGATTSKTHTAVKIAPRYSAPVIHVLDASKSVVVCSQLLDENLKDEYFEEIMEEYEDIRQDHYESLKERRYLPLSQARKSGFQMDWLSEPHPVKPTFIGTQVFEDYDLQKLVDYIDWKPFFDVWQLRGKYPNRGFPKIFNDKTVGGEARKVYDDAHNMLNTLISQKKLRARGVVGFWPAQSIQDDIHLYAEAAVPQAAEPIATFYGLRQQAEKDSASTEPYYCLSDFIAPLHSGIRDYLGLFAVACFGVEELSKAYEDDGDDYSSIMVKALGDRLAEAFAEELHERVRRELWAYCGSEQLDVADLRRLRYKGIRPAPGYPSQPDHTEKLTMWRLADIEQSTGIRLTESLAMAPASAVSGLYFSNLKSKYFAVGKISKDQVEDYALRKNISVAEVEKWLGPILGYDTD", "UniProt P54920": "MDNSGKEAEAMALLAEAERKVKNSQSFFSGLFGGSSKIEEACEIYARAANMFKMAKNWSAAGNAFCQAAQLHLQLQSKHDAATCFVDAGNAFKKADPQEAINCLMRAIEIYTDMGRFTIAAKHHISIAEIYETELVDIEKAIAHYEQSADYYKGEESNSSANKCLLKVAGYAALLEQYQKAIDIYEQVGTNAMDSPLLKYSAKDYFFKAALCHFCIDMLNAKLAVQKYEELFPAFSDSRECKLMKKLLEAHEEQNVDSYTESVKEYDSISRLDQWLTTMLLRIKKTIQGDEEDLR", "UniProt Q03426, 331-357": "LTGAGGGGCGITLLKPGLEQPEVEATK"}, "source": "the supplement of paper PMC11732987", "about": "“Enantioselective OTUD7B fragment discovery through chemoproteomics screening and high-throughput optimisation” (Communications Chemistry, 2025)", "note": "The list shows a part of the results. The data scatter; read single values as rough."}
{"compound": "ClCC(=O)N[C@H]1CCCc2ccccc12", "assay": "log2 mean competition ratio of IA-DTB cysteine labelling (DMSO/compound) (log2 ratio); higher = stronger cysteine engagement by compound", "settings": "200 µM; treatment time: 4 h; cell line lysate: HEK293T", "experimental": "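IA-DTB competitive cysteine chemoproteomics in HEK293T RIPA lysate. Lysates were treated with compound 29 or 30 at 50 or 200 µM for 4 h, then IA-DTB (500 µM, 1 h), trypsin-digested, NeutrAvidin-enriched and analysed by diaPASEF. Competition ratio = intensity DMSO / intensity compound (n=4 treated, n=64 DMSO); binding: mean log2 CR ≥ 1 and p ≤ 0.05 plus QC filters. Target is the cysteine site.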"}
{"target": "MYCBP2 C2951 (UniProt O75592)", "log2 mean competition ratio": 0.0107}
{"target": "NAA15 C721", "log2 mean competition ratio": -0.234}
{"target": "NAA20 C9 (UniProt P61599)", "log2 mean competition ratio": 0.0862}
{"target": "NAP1L1 C88", "log2 mean competition ratio": -0.00589}
{"target": "MSH3 C803 (UniProt P20585)", "log2 mean competition ratio": -0.395}
{"target": "MRPL38 C143 (UniProt Q96DV4)", "log2 mean competition ratio": -0.404}
{"target": "MTR C378 (UniProt Q99707)", "log2 mean competition ratio": 0.0348}
{"target": "NAA15 C309", "log2 mean competition ratio": -0.0921}
{"target": "MTFMT C365 (UniProt Q96DP5)", "log2 mean competition ratio": 0.629}
{"target": "MYCBP2 C2169 (UniProt O75592)", "log2 mean competition ratio": 0.0202}
{"target": "MYH10 C823 (UniProt P35580)", "log2 mean competition ratio": 0.0587}
{"target": "MSH6 C579 (UniProt P52701)", "log2 mean competition ratio": -0.166}
{"target": "NAPA C84 (UniProt P54920)", "log2 mean competition ratio": -0.116}
{"target": "MYH9 C988 (UniProt P35579)", "log2 mean competition ratio": 0.0489}
{"target": "MRPL2 C213 (UniProt Q5T653)", "log2 mean competition ratio": 0.0548}
{"target": "MVK C339 (UniProt Q03426)", "log2 mean competition ratio": -0.0741}
{"target": "MTMR3 C632 (UniProt Q13615)", "log2 mean competition ratio": 0.651}
{"target": "MYBL2 C69 (UniProt P10244)", "log2 mean competition ratio": 0.0356}
{"target": "MSH6 C1129 (UniProt P52701)", "log2 mean competition ratio": -0.0286}
{"target": "MTMR1_(C170,C170,C176,C176) (UniProt Q13613)", "log2 mean competition ratio": 0.13}
{"target": "MTMR1 C58 (UniProt Q13613)", "log2 mean competition ratio": 0.285}
{"target": "MYCBP2 C2044 (UniProt O75592)", "log2 mean competition ratio": -0.185}
{"target": "NADSYN1 C531 (UniProt Q6IA69)", "log2 mean competition ratio": -0.258}
{"target": "MYCBP2 C1475 (UniProt O75592)", "log2 mean competition ratio": 0.0158}
{"target": "MYSM1 C169 (UniProt Q5VVJ2)", "log2 mean competition ratio": 0.00836}
{"target": "MTMR14 C429 (UniProt Q8NCE2)", "log2 mean competition ratio": 0.0224}
{"target": "MTCL1 C1628 (UniProt Q9Y4B5)", "log2 mean competition ratio": 0.0679}
